Assay results as given in PubChem BioAssay AID2417 (National Center for Advancing Translational Sciences (NCATS), 2010).
In all, about 140,000 compounds went through this assay and about 4,300 (3.1%) were called active. Inconclusive results, whose numbers are uncertain, are shown with a selection of clear calls.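 Rule for the calls: active = readout at or below -70, meaning at least 70% loss of cells showing the perinucleolar compartment, a nuclear body marking cancer cells; inconclusive = readout between -30 and a set limit; inactive = the rest.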

Test: High Content Assay for Compounds that inhibit the Assembly of the Perinucleolar Compartment;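 note: plate controls were DMSO wells for no effect and camptothecin positive control wells for full effect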
Conditions: PC3M PTB-GFP, PNC prevalence imaging, 16 h; at 10 µM; stronger effect = lower value
In short: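 PC3M cells stably expressing PTB-GFP, 750–1000 cells/well, treated 16 h at 37 °C with compound (23 nl of library stock), in duplicate. After paraformaldehyde fixation and Hoechst stain, imaged at 20x; PNC prevalence scored by image analysis.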

Structure (SMILES) | activity change (PNC), negative = inhibition
CCOc1ccccc1NC(=S)Nc1ncccc1C | inactive: 14.1%
CN(C#N)c1nc(Cl)nc(Nc2cccc(Cl)c2)n1 | inconclusive: -34.2%
COC(=O)c1c(NC(=S)Nc2ccc(F)cc2[N+](=O)[O-])sc2c1CCCCC2 | inactive: 6.71%
COc1cc(C2NCC(c3ccc(Cl)cc3Cl)c3c2[nH]c2ccccc32)cc(OC)c1OC (stereo not given) | inconclusive: -52.2%
CC(N)c1ccc(Cl)cc1Cl (stereo not given) | inconclusive: -64.5%
COc1ccccc1NC(=O)N1CCN(c2ccccc2F)CC1 | inconclusive: -68.2%
CCOC(=O)N1CCc2c(sc3nc(SC(C)C)n(N)c(=O)c23)C1 | inconclusive: -41.9%
CCN1CCN(Cc2ccc(NC(=O)Nc3ccc(OC)cc3)cc2)CC1 | inconclusive: -52.8%
S=C1NCCc2ccccc2C1c1ccccc1Cl (stereo not given) | inactive: 28.3%
Cc1ccc2nc(SCc3nnc(-c4ccccc4Br)o3)[nH]c2c1 | inactive: 0.753%
O=C(Cn1c(S(=O)(=O)Cc2ccccc2)nc2ccccc21)N1CCCCC1 | inconclusive: -30.9%
Oc1ccc2c(c1)C1CCCC1(N1CCOCC1)O2 (stereo not given) | inactive: -5.46%
Cc1cc(NC(=O)c2ccc(S(=O)(=O)N(C)C)cc2)n(-c2ccccn2)n1 | inconclusive: -35.6%
Cc1ccc(Cn2c(Sc3nnc(C)s3)nc3c2c(=O)[nH]c(=O)n3C)cc1 | inactive: 2.7%
CC(=O)[C@H]1[C@H](c2cccc(Cl)c2)C(C#N)(C#N)[C@@H]2c3ccccc3C=CN21 | inactive: -28.3%
COc1ccc(S(=O)(=O)N2CCN(S(=O)(=O)c3ccc4c(c3)OCCO4)CC2)cc1 | inconclusive: -44.4%
O=C1CC(N2CCN(c3ccc(Cl)c(Cl)c3)CC2)C(=O)N1 (stereo not given) | inactive: -17.9%
Cc1nn(-c2ccc(Cl)c(Cl)c2)c(=O)c2ccccc12 | inactive: 10.9%
CCC(=O)Nc1ccc2c(c1)ncn2-c1ccccc1OC | inactive: -3.23%
CC(NC(=O)COC(=O)/C(=C/c1cccs1)c1cccs1)c1ccccc1 (stereo not given) | inactive: 7.6%

Structure (SMILES) | activity change (PNC), negative = inhibition
CCOc1ccc(NC(=O)CC2C(=O)N(C)C(=S)N2CCCc2ccccc2)cc1 (stereo not given) | inconclusive: -47.2%
Cc1nc2ccccc2n1C(=O)c1ccc(Cl)cc1[N+](=O)[O-] | inactive: -4.1%
CCOC(=O)c1cccc(NC(=O)CSc2nc3cccnc3n2C)c1 | inconclusive: -60.4%
CC1=CC(C)(C(Cl)Cl)C(C)=CC1=O (stereo not given) | active: -100%
CCc1nc(SCC(=O)c2cccc([N+](=O)[O-])c2)n[nH]1 | inactive: 21.2%
C=CCNS(=O)(=O)c1nc(C)c(Cl)c(C)c1C#N | active: -84.8%
COc1ccc(NC(=O)CCCC(=O)OCC(F)(F)C(F)F)cc1 | inconclusive: -52.2%
CC(=O)NC1(C(F)(F)F)N=C2SCCN2C1=O (stereo not given) | inconclusive: -32.5%
Cc1ccccc1CSc1nnc(C)n1N | inactive: 13.2%
O=c1nc(-c2ccccc2)cc(-c2ccccc2)[nH]1 | inconclusive: -39.9%
Cc1ccc2sc(NNC(=O)c3ccc4c(c3)OCCO4)nc2c1C | inconclusive: -68.5%
O=C(NCCCN1CCOCC1)C1CC(=O)N(CCc2ccccc2)C1 (stereo not given) | inconclusive: -62%
CCn1cc(CNC(=O)c2cccc([N+](=O)[O-])c2)cn1 | inactive: 26.4%
CC(C)C(=O)N(c1ccc(F)cc1)C1C=CS(=O)(=O)C1 (stereo not given) | inactive: -1.87%
Cc1ccnc(NS(=O)(=O)c2ccc(NC(=O)c3cc(-c4ccc(Br)cc4)nc4ccccc34)cc2)n1 | inactive: 53.7%
CSC1=C(C#N)C(c2ccccc2C)C(C#N)=C(N)N1 (stereo not given) | inactive: -7.66%
COC(=O)c1c(NC(=O)CN2C(=O)NC(CCc3ccccc3)C2=O)sc2c1CCCCC2 (stereo not given) | inconclusive: -30.5%
O=C(Nc1cccn2ncnc12)C(Cl)Cl | inconclusive: -39.9%
O=S(=O)(c1ccc(NC2CCCc3ccccc32)nc1)N1CCOCC1 (stereo not given) | inactive: -7.48%
COc1ccc(C(=O)N[C@H](C(=O)NCC2CCCCC2)C(C)C)cc1 | inconclusive: -51.1%

Part of the list above, reformatted.
Structure (SMILES)	activity change (PNC), negative = inhibition
COc1cc(C2NCC(c3ccc(Cl)cc3Cl)c3c2[nH]c2ccccc32)cc(OC)c1OC (stereo not given)	inconclusive: -52.2%
CC(N)c1ccc(Cl)cc1Cl (stereo not given)	inconclusive: -64.5%
CCOC(=O)N1CCc2c(sc3nc(SC(C)C)n(N)c(=O)c23)C1	inconclusive: -41.9%
S=C1NCCc2ccccc2C1c1ccccc1Cl (stereo not given)	inactive: 28.3%
CC(=O)[C@H]1[C@H](c2cccc(Cl)c2)C(C#N)(C#N)[C@@H]2c3ccccc3C=CN21	inactive: -28.3%
O=C1CC(N2CCN(c3ccc(Cl)c(Cl)c3)CC2)C(=O)N1 (stereo not given)	inactive: -17.9%
CCC(=O)Nc1ccc2c(c1)ncn2-c1ccccc1OC	inactive: -3.23%
CC(NC(=O)COC(=O)/C(=C/c1cccs1)c1cccs1)c1ccccc1 (stereo not given)	inactive: 7.6%
Cc1nc2ccccc2n1C(=O)c1ccc(Cl)cc1[N+](=O)[O-]	inactive: -4.1%
CCOC(=O)c1cccc(NC(=O)CSc2nc3cccnc3n2C)c1	inconclusive: -60.4%
Cc1ccccc1CSc1nnc(C)n1N	inactive: 13.2%
Cc1ccc2sc(NNC(=O)c3ccc4c(c3)OCCO4)nc2c1C	inconclusive: -68.5%
CCn1cc(CNC(=O)c2cccc([N+](=O)[O-])c2)cn1	inactive: 26.4%
CC(C)C(=O)N(c1ccc(F)cc1)C1C=CS(=O)(=O)C1 (stereo not given)	inactive: -1.87%
COC(=O)c1c(NC(=O)CN2C(=O)NC(CCc3ccccc3)C2=O)sc2c1CCCCC2 (stereo not given)	inconclusive: -30.5%

Remaining list, next part.

Structure (SMILES) | activity change (PNC), negative = inhibition
CC/C(=N\O)c1ccc(OC)c(OC)c1 | inconclusive: -41.8%
COC(=O)c1c(NC(=O)CCCC(=O)O)sc(C)c1C | inconclusive: -35.1%
Cn1cccc1/C=N/NC(=O)c1cccnc1 | inconclusive: -71.5%
COc1ccc(C2=C(SC)CC2=NC(C)(C)C)cc1 | inconclusive: -45%
CCOC(=O)C1CCN(CC(O)COc2ccc(C(C)(C)C)cc2)CC1 (stereo not given) | inactive: 0.851%
NC(=O)CN(c1ccccc1)C1SC(=O)N(Cc2ccccc2)C1=O (stereo not given) | inactive: 16.8%
COc1ccc(Cl)cc1N1Cc2ccccc2C1 | inconclusive: -50%
CCCCN(C(=O)c1c(C)[nH]c(C(=O)OCC)c1C)c1ccccc1 | inconclusive: -69%
CCOc1ccc(C2c3c(oc4cc(C)c(C)cc4c3=O)C(=O)N2CCCN2CCOCC2)cc1 (stereo not given) | inactive: 13.2%
CCn1c(SCC(=O)Nc2cccc(F)c2)nnc1-c1cc2cc(Br)ccc2o1 | inconclusive: -33.7%
Cc1onc(-c2ccccc2Cl)c1C(=O)Nc1nnc(C(C)C)s1 | inconclusive: -45.7%
O=C(O)Cn1cc(C(=O)C2CC2)c2ccccc21 | inconclusive: -37.4%
Cc1ccc(C2=CC(c3cccs3)n3nnnc3N2)cc1 (stereo not given) | inactive: 2.45%
COc1ccc(NC(=O)Nc2nc3c(s2)CCCC3)cc1 | inconclusive: -39.5%
CC12CCC(=O)N1C(C(=O)OCC(=O)Nc1sccc1C#N)CS2 (stereo not given) | inactive: 10.5%
COc1ccc(S(=O)(=O)N2CCC(C(N)=O)(N3CCCCC3)CC2)cc1 | inconclusive: -31.3%
O=C(Nc1cccc(Cl)c1)N(CCN1CCOCC1)Cc1cccc(Cl)c1 | inconclusive: -46.1%
Cc1ccc(S(=O)(=O)c2c(C(=O)c3ccccc3)cnc3cc4c(cc23)OCCO4)cc1 | inconclusive: -38.6%
CC(C)c1ccc(NC(=O)CCNS(=O)(=O)c2cccc3nonc23)cc1 | active: -100%
COC(=O)CC/C(O)=C1\C(=O)CC(C)(C)CC1=Nc1ccccc1OC | inconclusive: -75.2%
